Data as given in PubChem BioAssay AID1259405 (NCATS, 2018)

Screen: 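Silenced genes that increase secreted GFP made by CHO cells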 (primary screen)
System: Chinese hamster CHO-K1 ovary cells with stable secreted eGFP expression
Knock-down reagent: single siRNA against mouse genes, 0.8 pmol siRNA per well (2 µl of 400 nM stock)
Duration: 3 days
Read-out: 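Percent of the per-plate non-targeting control median for intracellular GFP per well by laser scanning cytometry and for cell viability by ATP luminescence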
Scale: GFP, % of control: higher = more GFP per well, higher productivity; viability (ATP), % of control: higher = more viable cells (more ATP)
Call rule: 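Called active when intracellular GFP, relative to negative control, is at or above 120%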
The whole screen tested about 50,000 reagents; below is a part drawn at random. Of all reagents, about 4,000 (8%) got an active call. 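Mouse siRNA library applied to hamster cells; one well for each siRNA.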 A number with no mark means an inactive call. The numbers tell different reagents against one gene apart.

| Gene | reagent | GFP, % of control | viability (ATP), % of control |
| --- | --- | --- | --- |
| Vmn1r227 | 1 | 62.7 | 39.3 |
| Vmn1r227 | 2 | 84.5 | 79.2 |
| Vmn1r227 | 3 | 52.3 | 53.2 |
| Pcdhgb6 | 1 | 65.5 | 59.7 |
| Pcdhgb6 | 2 | 85.9 | 74.1 |
| Pcdhgb6 | 3 | 4.93 | 8.2 |
| Slc25a44 | 1 | 53.5 | 77.7 |
| Slc25a44 | 2 | 89.1 | 75.6 |
| Slc25a44 | 3 | 94.3 | 111 |
| Cct3 | 1 | 76.4 | 66.7 |
| Cct3 | 2 | 56.4 | 48.8 |
| Cct3 | 3 | 83 | 40.3 |
| Trak1 | 1 | 77.1 | 80.8 |
| Trak1 | 2 | 65.2 | 82.9 |
| Gid8 | 1 | 92.6 | 63 |
| Gid8 | 2 | 69.5 | 47.2 |
| Gid8 | 3 | 34.9 | 59.9 |
| Hhat | 1 | 62.9 | 66 |
| Hhat | 2 | 82.5 | 44.7 |
| Hhat | 3 | 73.3 | 65.4 |
| H2ac18 | 1 | 156 (active) | 102 |
| H2ac18 | 2 | 101 | 101 |
| H2ac18 | 3 | 55.8 | 57.2 |
| Or6c211 | 1 | 85.1 | 96.7 |
| Or6c211 | 2 | 101 | 86.3 |
| Or6c211 | 3 | 93.3 | 86.8 |
| Slc37a3 | 1 | 150 (active) | 91.2 |
| Slc37a3 | 2 | 62.5 | 66.6 |
| Slc37a3 | 3 | 85.5 | 92.4 |
| Pdss1 | 1 | 93.3 | 131 |
| Pdss1 | 2 | 64.1 | 92.2 |
| Pdss1 | 3 | 90.4 | 110 |
| Fam76a | 1 | 114 | 110 |
| Fam76a | 2 | 69.5 | 58.7 |
| Fam76a | 3 | 165 (active) | 155 |
| Mthfd1l | 1 | 132 (active) | 86.1 |
| Mthfd1l | 2 | 77.2 | 74.1 |
| Mthfd1l | 3 | 95.5 | 94.4 |
| Fastkd2 | 1 | 79.3 | 91.9 |
| Fastkd2 | 2 | 126 (active) | 68.1 |
| Fastkd2 | 3 | 129 (active) | 72.5 |
| Atp6v1e2 | 1 | 48.9 | 70.3 |
| Atp6v1e2 | 2 | 65.5 | 62.3 |
| Atp6v1e2 | 3 | 109 | 34.7 |
| Fhl3 | 1 | 58.8 | 69.3 |
| Fhl3 | 2 | 80.4 | 85.2 |
| Or11g24 | 1 | 90.7 | 27 |
| Or11g24 | 2 | 86.4 | 89.8 |
| Or11g24 | 3 | 79.1 | 64.2 |
| E2f4 | 1 | 78.1 | 83 |
| E2f4 | 2 | 76.8 | 77 |
| Tnfsf10 | 1 | 75.7 | 94.9 |
| Tnfsf10 | 2 | 91.7 | 80.6 |
| P2rx2 | 1 | 114 | 72.8 |
| P2rx2 | 2 | 121 (active) | 105 |
| P2rx2 | 3 | 50.5 | 45.3 |
| Rnf138 | 1 | 59.2 | 70.5 |
| Rnf138 | 2 | 61.5 | 53.4 |
| Rnf138 | 3 | 80.6 | 87.3 |

Laid out differently: entries from further up.
Gene	reagent	GFP, % of control	viability (ATP), % of control
P2rx2	3	50.5	45.3
Rnf138	1	59.2	70.5
